Assay results from the supplement of paper PMC10849652.
This is one part of the list.

Chains of the proteins cited; added tags and fusions are not shown. Lines headed by an entry give the natural chain unless they say otherwise; changes in a name come on top.
UniProt Q8NEJ9: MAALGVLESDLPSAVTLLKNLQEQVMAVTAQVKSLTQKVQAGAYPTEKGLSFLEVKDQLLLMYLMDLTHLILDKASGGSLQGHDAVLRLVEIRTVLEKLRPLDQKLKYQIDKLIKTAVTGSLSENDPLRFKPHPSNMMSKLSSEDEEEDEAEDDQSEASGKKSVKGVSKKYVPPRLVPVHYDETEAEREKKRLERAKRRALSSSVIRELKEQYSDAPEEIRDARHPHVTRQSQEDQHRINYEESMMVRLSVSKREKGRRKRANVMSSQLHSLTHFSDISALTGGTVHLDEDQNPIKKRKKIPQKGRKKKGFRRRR
UniProt Q96JN8: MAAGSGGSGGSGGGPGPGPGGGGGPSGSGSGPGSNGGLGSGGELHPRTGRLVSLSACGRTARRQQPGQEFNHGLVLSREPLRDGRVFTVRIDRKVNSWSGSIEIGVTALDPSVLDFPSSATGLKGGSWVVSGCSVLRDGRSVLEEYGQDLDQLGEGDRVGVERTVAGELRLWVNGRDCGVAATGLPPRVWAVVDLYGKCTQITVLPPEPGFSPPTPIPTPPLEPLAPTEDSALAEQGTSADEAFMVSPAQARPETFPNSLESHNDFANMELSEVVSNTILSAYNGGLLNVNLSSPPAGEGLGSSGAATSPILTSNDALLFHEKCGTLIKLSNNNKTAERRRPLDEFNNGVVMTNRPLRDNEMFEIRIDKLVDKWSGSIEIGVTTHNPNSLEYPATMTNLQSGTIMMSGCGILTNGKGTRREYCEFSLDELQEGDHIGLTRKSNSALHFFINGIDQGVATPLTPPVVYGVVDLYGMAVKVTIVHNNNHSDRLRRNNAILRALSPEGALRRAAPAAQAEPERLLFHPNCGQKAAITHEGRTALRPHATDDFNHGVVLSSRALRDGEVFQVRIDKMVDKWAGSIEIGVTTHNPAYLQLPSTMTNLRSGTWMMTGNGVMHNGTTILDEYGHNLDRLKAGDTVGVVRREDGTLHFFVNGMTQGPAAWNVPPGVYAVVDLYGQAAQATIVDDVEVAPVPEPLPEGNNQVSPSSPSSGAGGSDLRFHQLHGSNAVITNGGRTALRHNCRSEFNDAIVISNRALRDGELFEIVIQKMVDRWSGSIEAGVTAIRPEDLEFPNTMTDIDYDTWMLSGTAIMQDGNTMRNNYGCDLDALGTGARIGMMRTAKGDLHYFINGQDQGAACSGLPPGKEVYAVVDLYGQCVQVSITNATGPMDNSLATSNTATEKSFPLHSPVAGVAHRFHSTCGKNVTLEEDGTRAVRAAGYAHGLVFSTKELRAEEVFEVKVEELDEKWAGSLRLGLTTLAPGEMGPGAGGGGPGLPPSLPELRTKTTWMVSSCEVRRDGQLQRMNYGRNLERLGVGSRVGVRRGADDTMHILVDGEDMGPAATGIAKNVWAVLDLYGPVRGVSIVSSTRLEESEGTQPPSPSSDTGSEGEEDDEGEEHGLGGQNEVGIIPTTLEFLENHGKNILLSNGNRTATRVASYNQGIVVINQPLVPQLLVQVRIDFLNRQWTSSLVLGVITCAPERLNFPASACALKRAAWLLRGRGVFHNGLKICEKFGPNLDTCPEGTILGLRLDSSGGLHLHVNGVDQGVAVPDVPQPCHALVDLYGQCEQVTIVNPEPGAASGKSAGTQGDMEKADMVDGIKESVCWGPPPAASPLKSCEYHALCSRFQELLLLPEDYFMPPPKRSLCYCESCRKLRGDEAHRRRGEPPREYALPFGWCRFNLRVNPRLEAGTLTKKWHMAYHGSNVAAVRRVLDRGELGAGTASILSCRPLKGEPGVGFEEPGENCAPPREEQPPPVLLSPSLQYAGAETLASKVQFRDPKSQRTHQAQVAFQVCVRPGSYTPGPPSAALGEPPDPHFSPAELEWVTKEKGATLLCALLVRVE
UniProt Q92597: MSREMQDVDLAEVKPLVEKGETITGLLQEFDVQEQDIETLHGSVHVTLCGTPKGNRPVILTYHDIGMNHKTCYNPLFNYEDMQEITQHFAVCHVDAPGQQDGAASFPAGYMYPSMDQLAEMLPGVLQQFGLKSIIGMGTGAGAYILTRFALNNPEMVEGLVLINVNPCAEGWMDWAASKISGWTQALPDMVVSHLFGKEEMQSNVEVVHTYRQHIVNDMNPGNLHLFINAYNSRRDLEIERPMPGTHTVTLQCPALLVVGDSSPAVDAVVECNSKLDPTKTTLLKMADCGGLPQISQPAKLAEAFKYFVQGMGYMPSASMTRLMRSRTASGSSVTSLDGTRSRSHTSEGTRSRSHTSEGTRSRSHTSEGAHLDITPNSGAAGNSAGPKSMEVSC
UniProt Q86SG6: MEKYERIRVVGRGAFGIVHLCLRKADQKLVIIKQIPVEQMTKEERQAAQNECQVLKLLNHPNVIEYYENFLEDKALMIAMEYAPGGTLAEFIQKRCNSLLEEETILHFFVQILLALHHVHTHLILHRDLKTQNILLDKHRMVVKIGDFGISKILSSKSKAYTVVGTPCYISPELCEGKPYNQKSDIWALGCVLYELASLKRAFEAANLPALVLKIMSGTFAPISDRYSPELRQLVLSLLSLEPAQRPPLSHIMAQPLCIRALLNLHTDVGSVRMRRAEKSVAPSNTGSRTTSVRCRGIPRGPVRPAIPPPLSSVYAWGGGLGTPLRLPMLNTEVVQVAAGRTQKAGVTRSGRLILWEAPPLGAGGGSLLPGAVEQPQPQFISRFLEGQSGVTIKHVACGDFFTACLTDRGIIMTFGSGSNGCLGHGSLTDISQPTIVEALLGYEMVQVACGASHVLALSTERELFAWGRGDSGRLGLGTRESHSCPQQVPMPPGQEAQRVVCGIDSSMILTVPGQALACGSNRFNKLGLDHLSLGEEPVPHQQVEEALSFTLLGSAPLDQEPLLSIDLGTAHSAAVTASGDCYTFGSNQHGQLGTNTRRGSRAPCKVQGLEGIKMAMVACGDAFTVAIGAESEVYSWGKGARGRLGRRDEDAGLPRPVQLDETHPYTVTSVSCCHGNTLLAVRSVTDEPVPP
UniProt Q9UN36: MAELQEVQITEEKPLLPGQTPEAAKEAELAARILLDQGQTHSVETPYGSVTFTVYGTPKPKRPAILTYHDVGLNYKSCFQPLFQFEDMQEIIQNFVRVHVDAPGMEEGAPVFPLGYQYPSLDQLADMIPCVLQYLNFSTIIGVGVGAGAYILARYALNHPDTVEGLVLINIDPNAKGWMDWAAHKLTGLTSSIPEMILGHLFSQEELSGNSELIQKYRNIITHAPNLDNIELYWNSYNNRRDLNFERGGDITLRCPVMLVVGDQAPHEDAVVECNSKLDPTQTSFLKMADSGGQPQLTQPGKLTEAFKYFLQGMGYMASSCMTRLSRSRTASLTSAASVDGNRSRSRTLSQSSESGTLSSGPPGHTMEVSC
UniProt Q86UT6, whole entry, looked up: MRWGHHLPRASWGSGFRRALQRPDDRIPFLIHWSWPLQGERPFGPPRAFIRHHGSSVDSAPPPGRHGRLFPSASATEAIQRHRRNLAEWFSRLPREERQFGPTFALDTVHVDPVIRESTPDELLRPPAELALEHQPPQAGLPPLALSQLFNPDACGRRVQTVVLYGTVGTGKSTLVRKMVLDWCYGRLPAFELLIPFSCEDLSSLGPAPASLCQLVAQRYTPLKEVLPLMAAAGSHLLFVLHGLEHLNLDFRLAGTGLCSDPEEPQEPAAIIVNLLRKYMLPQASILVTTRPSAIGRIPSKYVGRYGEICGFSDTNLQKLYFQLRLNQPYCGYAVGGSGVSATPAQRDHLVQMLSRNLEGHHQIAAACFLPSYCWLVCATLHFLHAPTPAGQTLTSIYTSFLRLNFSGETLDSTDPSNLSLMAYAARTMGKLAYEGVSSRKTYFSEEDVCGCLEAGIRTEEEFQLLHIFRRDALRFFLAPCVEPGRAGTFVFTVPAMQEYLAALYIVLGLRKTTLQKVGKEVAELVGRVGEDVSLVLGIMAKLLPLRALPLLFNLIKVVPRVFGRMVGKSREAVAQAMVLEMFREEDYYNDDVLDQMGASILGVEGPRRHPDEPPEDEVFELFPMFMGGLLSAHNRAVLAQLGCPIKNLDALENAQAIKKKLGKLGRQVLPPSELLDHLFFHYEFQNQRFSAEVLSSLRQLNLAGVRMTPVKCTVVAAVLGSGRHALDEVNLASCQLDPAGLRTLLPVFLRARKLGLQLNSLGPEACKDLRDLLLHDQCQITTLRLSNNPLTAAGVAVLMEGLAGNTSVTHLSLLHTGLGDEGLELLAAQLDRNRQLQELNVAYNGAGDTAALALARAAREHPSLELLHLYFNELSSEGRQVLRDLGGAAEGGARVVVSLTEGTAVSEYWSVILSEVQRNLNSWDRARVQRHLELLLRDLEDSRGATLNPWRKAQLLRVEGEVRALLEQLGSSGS
UniProt Q86X76: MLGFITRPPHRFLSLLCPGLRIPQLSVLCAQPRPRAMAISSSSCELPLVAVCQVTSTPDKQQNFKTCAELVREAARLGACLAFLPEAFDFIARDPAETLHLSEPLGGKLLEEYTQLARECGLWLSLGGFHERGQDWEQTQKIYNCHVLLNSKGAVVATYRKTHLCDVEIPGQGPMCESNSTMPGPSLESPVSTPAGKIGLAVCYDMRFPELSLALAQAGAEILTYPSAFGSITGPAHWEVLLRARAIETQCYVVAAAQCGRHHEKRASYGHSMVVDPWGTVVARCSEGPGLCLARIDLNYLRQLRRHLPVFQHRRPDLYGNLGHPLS
UniProt O95167, whole entry, looked up: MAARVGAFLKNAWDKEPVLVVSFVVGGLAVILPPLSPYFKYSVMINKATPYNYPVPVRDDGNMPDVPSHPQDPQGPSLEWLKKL
UniProt Q16236, whole entry, looked up: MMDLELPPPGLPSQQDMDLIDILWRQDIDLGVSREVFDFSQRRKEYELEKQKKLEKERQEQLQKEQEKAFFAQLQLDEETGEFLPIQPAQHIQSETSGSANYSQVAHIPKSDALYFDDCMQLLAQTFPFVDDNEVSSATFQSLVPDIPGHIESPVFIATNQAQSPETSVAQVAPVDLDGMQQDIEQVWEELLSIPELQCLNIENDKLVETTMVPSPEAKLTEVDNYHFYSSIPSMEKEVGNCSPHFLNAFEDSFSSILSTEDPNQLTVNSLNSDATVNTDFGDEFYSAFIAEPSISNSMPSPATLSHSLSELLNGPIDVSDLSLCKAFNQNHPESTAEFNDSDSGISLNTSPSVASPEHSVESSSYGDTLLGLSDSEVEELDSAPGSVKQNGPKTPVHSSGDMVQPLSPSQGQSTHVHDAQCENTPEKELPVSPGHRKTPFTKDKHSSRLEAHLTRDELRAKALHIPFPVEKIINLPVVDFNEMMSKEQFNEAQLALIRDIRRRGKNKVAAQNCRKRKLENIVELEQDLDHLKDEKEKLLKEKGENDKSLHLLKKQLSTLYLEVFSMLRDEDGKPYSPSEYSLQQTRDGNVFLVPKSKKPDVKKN
UniProt Q9BS92: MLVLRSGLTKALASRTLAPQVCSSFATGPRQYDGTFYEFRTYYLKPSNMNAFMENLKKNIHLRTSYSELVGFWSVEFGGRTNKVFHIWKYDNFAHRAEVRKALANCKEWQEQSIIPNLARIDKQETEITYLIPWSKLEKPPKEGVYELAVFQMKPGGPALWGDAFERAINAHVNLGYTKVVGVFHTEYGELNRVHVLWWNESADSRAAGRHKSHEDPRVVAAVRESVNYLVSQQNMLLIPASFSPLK
UniProt Q16649: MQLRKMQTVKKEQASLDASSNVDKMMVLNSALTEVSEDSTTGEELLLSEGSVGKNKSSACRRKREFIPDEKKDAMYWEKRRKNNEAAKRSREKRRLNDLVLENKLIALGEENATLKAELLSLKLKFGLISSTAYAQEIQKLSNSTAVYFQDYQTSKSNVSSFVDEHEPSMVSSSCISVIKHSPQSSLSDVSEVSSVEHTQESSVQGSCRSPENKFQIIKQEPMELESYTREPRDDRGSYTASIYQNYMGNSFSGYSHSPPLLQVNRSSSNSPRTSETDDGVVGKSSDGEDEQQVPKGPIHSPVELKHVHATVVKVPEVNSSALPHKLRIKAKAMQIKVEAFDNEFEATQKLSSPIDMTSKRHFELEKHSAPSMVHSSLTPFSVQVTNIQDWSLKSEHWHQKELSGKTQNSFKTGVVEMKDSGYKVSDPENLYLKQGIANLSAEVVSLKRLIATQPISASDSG
UniProt O75438, whole entry, looked up: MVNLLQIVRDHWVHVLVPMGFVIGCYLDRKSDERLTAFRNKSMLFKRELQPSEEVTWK
UniProt O14524: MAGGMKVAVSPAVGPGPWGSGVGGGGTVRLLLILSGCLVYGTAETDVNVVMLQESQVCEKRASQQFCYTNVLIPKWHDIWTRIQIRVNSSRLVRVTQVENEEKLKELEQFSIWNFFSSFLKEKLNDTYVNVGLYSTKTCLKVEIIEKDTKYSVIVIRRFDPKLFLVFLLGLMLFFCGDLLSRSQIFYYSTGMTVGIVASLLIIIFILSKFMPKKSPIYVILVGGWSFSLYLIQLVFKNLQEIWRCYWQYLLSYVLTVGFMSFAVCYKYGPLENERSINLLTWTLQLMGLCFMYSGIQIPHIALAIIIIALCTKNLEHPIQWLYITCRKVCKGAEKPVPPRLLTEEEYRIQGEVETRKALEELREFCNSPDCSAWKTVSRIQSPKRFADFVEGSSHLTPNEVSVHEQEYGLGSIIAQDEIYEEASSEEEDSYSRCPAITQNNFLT

Experiments:
Assay in all cases: log2 fold change, soluble protein after heating vs DMSO (PISA); higher = thermal stabilisation; K562 lysate, 10 uM; active = over 0.2 and 3.5 SD of the protein, either way, in both replicates (recomputed)
nilotinib = compound: Cc1cn(-c2cc(NC(=O)c3ccc(C)c(Nc4nccc(-c5cccnc5)n4)c3)cc(C(F)(F)F)c2)cn1 [nilotinib]
In short: (§1)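 Quantification was by TMTpro 16plex LC-MS/MS with equalised channel sums, applied to the supernatant after 21,000xg for 90 min. Samples were crude K562 extract at 1 mg/mL protein in PBS pH 7.4 with 1 mM MgCl2, treated with 10 μM compound for 30 min, heated for 3 min across 48°C-58°C, pooled and brought to 0.5% NP-40 at 4°C. Values are log-two fold changes in thermal stability relative to solvent controls, from duplicates.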

[1] = compound: Cc1nc(Nc2n[nH]c3c2CN(C(=O)N[C@H](CN(C)C)c2ccccc2)C3(C)C)c2sccc2n1
In short: as §1

[2] = compound: Cc1ncc(-c2ccnc(Nc3ccc(S(C)(=O)=O)cc3)n2)n1C(C)C
In short: as §1

quisinostat = compound: Cn1cc(CNCC2CCN(c3ncc(C(=O)NO)cn3)CC2)c2ccccc21 [quisinostat]
In short: as §1

tipifarnib = compound: Cn1cncc1[C@@](N)(c1ccc(Cl)cc1)c1ccc2c(c1)c(-c1cccc(Cl)c1)cc(=O)n2C [tipifarnib]
In short: as §1

[3] = compound: NC(=O)Nc1cc(-c2cccc(F)c2)sc1C(=O)N[C@H]1CCCNC1
In short: as §1

[4] = compound: NC(=O)c1cnc(N[C@@H]2CCCC[C@@H]2N)nc1Nc1cccc(-n2nccn2)c1
In short: as §1

[5] = compound: NC1(c2ccc(-c3nc4ccn5c(=O)[nH]nc5c4cc3-c3ccccc3)cc2)CCC1
In short: as §1

dasatinib = compound: Cc1nc(Nc2ncc(C(=O)Nc3c(C)cccc3Cl)s2)cc(N2CCN(CCO)CC2)n1 [dasatinib]
In short: as §1

[6] = compound: Cn1cc(-c2ccc3c(c2)CCN3C(=O)Cc2cccc(C(F)(F)F)c2)c2c(N)ncnc21
In short: as §1

Measured: log2 fold change

NIPA1 (UniProt Q7RTP0)
inactive: nilotinib 0.006 | [1] 0.064 | [2] -0.072 | quisinostat -0.217 | tipifarnib 0.033 | [3] 0.029 | [4] -0.034 | [5] -0.03

NGDN (UniProt Q8NEJ9)
inactive: nilotinib -0.434 | [1] -0.006 | [2] -0.306 | quisinostat -0.036 | tipifarnib 0.368 | [3] 0.18 | [4] -0.116 | [5] 0.179

NEURL4 (UniProt Q96JN8)
inactive: dasatinib 0.006 | [6] 0.034 | quisinostat 0.095 | [3] -0.129 | [4] -0.063 | [5] 0.145

NFAT5 isoform 5 (UniProt O94916)
inactive: nilotinib -0.012 | [1] -0.07 | dasatinib 0.008 | [2] 0.046 | [6] -0.014 | quisinostat -0.172 | tipifarnib -0.032 | [3] 0.031 | [4] 0.018 | [5] 0.039

NDRG1 (UniProt Q92597)
inactive: dasatinib -0.145 | [6] 0.254 | quisinostat -0.024 | [3] -0.02 | [4] -0.098 | [5] 0.073

NEIL2 (UniProt Q969S2)
inactive: nilotinib -0.253 | [1] -0.144 | [2] 0.035 | tipifarnib -0.036 | [5] 0.008

NFYC isoform 3 (UniProt Q13952)
inactive: dasatinib 0.042 | [6] -0.213 | [5] 0.051

NEK8 (UniProt Q86SG6)
inactive: nilotinib 0.079 | [1] -0.081 | [2] 0.185 | tipifarnib 0.139 | [5] -0.049

NFE2L1 (UniProt Q14494)
inactive: quisinostat 0 | [3] 0.034 | [5] 0.025

NIN isoform 7 (UniProt Q8N4C6)
inactive: quisinostat 0.044 | [3] 0.042 | [4] 0.016 | [5] -0.018

NDRG2 isoform 6 (UniProt Q9UN36)
inactive: dasatinib 0.124 | [6] 0.025 | [4] -0.046 | [5] 0.04

NKIRAS1 (UniProt Q9NYS0)
inactive: nilotinib 0.182 | [1] 0.064 | dasatinib -0.183 | [2] -0.029 | [6] 0.106 | tipifarnib 0.134 | [4] -0.119 | [5] -0.128

NFAT5 isoform 4 (UniProt O94916)
inactive: quisinostat 0.014 | [3] 0.012

NFKB1 isoform 2 (UniProt P19838)
inactive: nilotinib 0.047 | [1] 0.02 | [2] -0.011 | [6] -0.052 | quisinostat 0.01 | tipifarnib -0.019 | [3] 0.052 | [4] 0.005 | [5] 0.025

NLRX1 (UniProt Q86UT6)
inactive: [5] 0.005

NKX2-2 (UniProt O95096)
inactive: quisinostat -0.468 | [3] -0.011 | [4] 0.121 | [5] -0.066

NDUFC1 (UniProt O43677)
inactive: dasatinib 0.033 | [6] -0.01 | [5] 0.066

NEXN (UniProt Q0ZGT2)
inactive: nilotinib -0.022 | [1] -0.011 | dasatinib 0.043 | [2] -0.051 | [6] 0.027 | tipifarnib -0.043 | [4] -0.149 | [5] -0.002

NIT1 (UniProt Q86X76)
inactive: nilotinib -0.002 | [1] -0.002 | dasatinib -0.039 | [2] -0.022 | [6] -0.064 | quisinostat -0.064 | tipifarnib 0.035 | [3] 0.023 | [4] -0.007 | [5] -0.028

NDUFA3 (UniProt O95167)
inactive: nilotinib -0.137 | [1] -0.034 | dasatinib -0.051 | [2] 0.063 | [6] 0.038 | quisinostat -0.078 | tipifarnib -0.232 | [3] 0.033 | [5] -0.032

NDUFV2 (UniProt P19404)
inactive: nilotinib -0.019 | [1] -0.006 | dasatinib 0.022 | [2] -0.011 | [6] 0.028 | quisinostat -0.006 | tipifarnib 0.02 | [3] -0.002 | [4] 0.016 | [5] -0.023

NEU4 (UniProt C9JEA3)
inactive: nilotinib -0.001 | [1] 0.03 | dasatinib -0.055 | [2] -0.001 | [6] 0.016 | quisinostat -0.33 | tipifarnib -0.06 | [3] 0.059 | [5] -0.016

NFE2L2 (UniProt Q16236)
inactive: quisinostat 0.031 | [3] -0.125

NIPSNAP3B (UniProt Q9BS92)
inactive: nilotinib -0.101 | [1] 0.136 | [2] -0.069 | quisinostat 0.041 | tipifarnib -0.088 | [3] -0.09 | [4] -0.032 | [5] -0.006

NDFIP1 (UniProt Q9BT67)
inactive: nilotinib 0.082 | [1] 0.001 | dasatinib -0.009 | [2] 0.163 | [6] 0.109 | quisinostat -0.011 | tipifarnib -0.055 | [3] 0.071 | [4] 0.034 | [5] -0.043

Three entries drawn at random from the list so far, as already listed:
NIPSNAP3B (UniProt Q9BS92)
inactive: nilotinib -0.101 | [1] 0.136 | [2] -0.069 | quisinostat 0.041 | tipifarnib -0.088 | [3] -0.09 | [4] -0.032 | [5] -0.006

NFE2L2 (UniProt Q16236)
inactive: quisinostat 0.031 | [3] -0.125

NDUFV2 (UniProt P19404)
inactive: nilotinib -0.019 | [1] -0.006 | dasatinib 0.022 | [2] -0.011 | [6] 0.028 | quisinostat -0.006 | tipifarnib 0.02 | [3] -0.002 | [4] 0.016 | [5] -0.023

Additional entries follow:

NDFIP2 (UniProt Q9NV92)
inactive: nilotinib -0.069 | [1] 0.148 | [2] -0.057 | quisinostat 0.146 | tipifarnib 0.165 | [3] -0.063

NFIL3 (UniProt Q16649)
inactive: nilotinib -0.014 | [1] -0.022 | [2] -0.03 | tipifarnib -0.027 | [4] 0.605

NKAPD1 isoform 2 (UniProt Q6ZUT1)
inactive: nilotinib 0.038 | [1] 0.23 | [2] 0.147 | tipifarnib -0.137 | [5] -0.105

NDUFAF5 (UniProt Q5TEU4)
inactive: dasatinib 0.02 | [6] -0.061 | quisinostat -0.078 | [3] 0.114 | [4] -0.034 | [5] -0.042

NLK (UniProt Q9UBE8)
inactive: [5] 0.066

NDRG2 (UniProt G3V2A6)
inactive: nilotinib -0.062 | [1] -0.016 | [2] 0.06 | tipifarnib -0.057 | [4] 0.004

NKTR (UniProt P30414)
inactive: nilotinib 0.009 | [1] -0.016 | dasatinib -0.157 | [2] 0.046 | [6] -0.05 | tipifarnib 0.003 | [4] -0.043 | [5] -0.1

NLRP1 (UniProt Q9C000)
inactive: dasatinib -0.045 | [6] -0.133 | quisinostat 0.311 | [3] 0.128 | [5] 0.25

NDUFB1 (UniProt O75438)
inactive: nilotinib 0.02 | [1] 0.024 | dasatinib -0.009 | [2] 0.225 | [6] -0.026 | quisinostat -0.026 | tipifarnib -0.124 | [3] 0.018 | [5] 0.004

NEK5 (UniProt Q6P3R8)
inactive: nilotinib -0.105 | [1] -0.011 | dasatinib -0.163 | [2] -0.012 | [6] -0.009 | tipifarnib -0.034 | [4] 0.053

NEMP1 (UniProt O14524)
inactive: quisinostat 0.157 | [3] 0.029

NFYA (UniProt P23511)
inactive: dasatinib -0.066 | [6] 0 | quisinostat 0.027 | [3] -0.065 | [4] -0.161 | [5] 0.027
